## Library screen at single concentrations

By UniProt entry, the sequences of proteins in these tests, tags left out. Residues count along the entry.
UniProt Q8IDJ8, 1-583: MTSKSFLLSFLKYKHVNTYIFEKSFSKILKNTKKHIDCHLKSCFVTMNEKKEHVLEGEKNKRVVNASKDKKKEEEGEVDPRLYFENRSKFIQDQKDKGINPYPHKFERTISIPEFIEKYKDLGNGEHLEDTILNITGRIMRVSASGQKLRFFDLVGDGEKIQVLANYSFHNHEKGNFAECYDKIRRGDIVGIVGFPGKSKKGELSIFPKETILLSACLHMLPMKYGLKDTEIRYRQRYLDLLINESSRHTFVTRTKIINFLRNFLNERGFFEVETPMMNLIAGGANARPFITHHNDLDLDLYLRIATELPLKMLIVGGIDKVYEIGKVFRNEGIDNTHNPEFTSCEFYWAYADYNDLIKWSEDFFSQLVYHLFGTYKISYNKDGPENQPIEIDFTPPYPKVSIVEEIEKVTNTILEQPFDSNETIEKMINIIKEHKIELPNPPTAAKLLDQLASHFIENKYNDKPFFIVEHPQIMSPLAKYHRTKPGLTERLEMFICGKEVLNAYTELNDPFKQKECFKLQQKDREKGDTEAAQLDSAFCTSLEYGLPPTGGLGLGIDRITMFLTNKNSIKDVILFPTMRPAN
UniProt A4I591, 1-473: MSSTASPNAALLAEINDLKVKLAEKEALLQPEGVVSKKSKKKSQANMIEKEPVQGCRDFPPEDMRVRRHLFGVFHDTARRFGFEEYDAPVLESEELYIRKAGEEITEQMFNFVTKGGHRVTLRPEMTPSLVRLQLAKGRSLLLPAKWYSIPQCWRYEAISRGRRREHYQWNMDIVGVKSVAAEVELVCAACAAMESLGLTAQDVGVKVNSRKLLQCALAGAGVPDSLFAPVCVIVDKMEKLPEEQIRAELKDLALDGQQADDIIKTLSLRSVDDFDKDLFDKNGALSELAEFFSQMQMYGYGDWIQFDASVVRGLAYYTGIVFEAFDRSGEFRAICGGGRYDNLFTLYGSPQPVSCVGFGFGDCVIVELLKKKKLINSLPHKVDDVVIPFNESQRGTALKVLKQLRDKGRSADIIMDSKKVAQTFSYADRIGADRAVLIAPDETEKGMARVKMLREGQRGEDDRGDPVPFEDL

Leishmania in macrophages: 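Cell assay of Leishmania donovani living inside macrophages; the read-out is not stated. Compounds at 30 µM. Higher reads as stronger inhibition (inferred: compounds with an IC50 in retests scored well above the rest). Size under these conditions: about 69,000 compounds, about 1,000 of them at 50% or above in at least one test.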
PfKRS1: 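Enzyme assay of the cytosolic lysyl-tRNA synthetase in 384-well plates, read by luminescence. Target: Lysine-tRNA ligase, Plasmodium falciparum 3D7 (UniProt Q8IDJ8). Concentration: 30 µM. Direction is inferred from only a few compounds that gave an IC50; most scored high, so higher reads as stronger inhibition. Of about 69,000 compounds tested this way, about 49 (0.071%) reached 50% or more in at least one test.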
LiHisRS: 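Enzyme assay of histidyl-tRNA synthetase; the read-out is not stated. Target: Histidine-tRNA ligase, Leishmania infantum (UniProt A4I591). Compounds at 30 µM. Direction is inferred from retests: higher values go with stronger inhibition. The assay is labelled LdHisRS but filed under L. infantum. About 69,000 compounds were tested under these conditions; 0.6% (about 410) showed 50% or more at least once.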

Each number is a percent effect as filed.
The controls that fix the scale are not given in the record; negative values are as filed.
This is an unselected part of the compounds tested.
Two or more numbers in one place are separate tests of the same structure; such repeats can differ widely.

- Cc1ccccc1CN(CCN(C)C)Cc1ccc(C(=O)O)cc1 : Leishmania in macrophages: -12.99%; PfKRS1: 8.039%; LiHisRS: 8.197%
- Cc1cc(C)c2[nH]c(=O)c(CN3CCCC(O)(CO)C3)cc2c1 (stereo not shown) : Leishmania in macrophages: 19.87%; PfKRS1: 4.544%; LiHisRS: 25.53%
- Cc1ocnc1C(=O)N1CCC2(CC1)c1nc[nH]c1CCN2CC(C)C : Leishmania in macrophages: 21.24%; PfKRS1: -2.107%; LiHisRS: 14.52%
- Cc1cc(NCc2ccc(C#N)cc2)n2nc(C)cc2n1 : Leishmania in macrophages: -4.754%; PfKRS1: 3.93%; LiHisRS: 25.97%
- CC(C)(C)OC(=O)N1CCCN(c2nnc(C3CC3)s2)CC1 : Leishmania in macrophages: -8.564%; PfKRS1: -1.125%; LiHisRS: 0%
- N#CCCCn1nnc(C2(NC(=O)c3ccccc3)CCCC2)n1 : Leishmania in macrophages: 12.55%; PfKRS1: -0.6124%; LiHisRS: -8.065%
- Cc1cc(CN(C)C(=O)NC2CCN(c3ncccn3)CC2)no1 : Leishmania in macrophages: 14.52%; PfKRS1: 2.382%; LiHisRS: 25%
- COc1cc(F)c(NC(=O)N(C)CCNC(=O)N(C)C)cc1F : Leishmania in macrophages: -0.1081%; PfKRS1: 3.239%; LiHisRS: 15.32%
- [H][C@@]12CS(=O)(=O)C[C@]1([H])N(C(=O)CCn1cc(C)cn1)CCN2C(=O)C(C)C : Leishmania in macrophages: 18.55%
- O=C(O)C(F)(F)F.[H][C@@]12CCN(S(C)(=O)=O)[C@]1([H])CC[C@@H](C(=O)NCCc1ccncc1)O2 : Leishmania in macrophages: -15.02%
- Cc1cccc(S(=O)(=O)N2CCCc3c(c(=O)n(C)n3C)C2)c1 : Leishmania in macrophages: 10.22%; PfKRS1: 3.85%; LiHisRS: 19.33%
- CCc1nnc(C(C)N2CCCN(C(=O)Oc3ccccc3)CC2)o1 (stereo not shown) : Leishmania in macrophages: 9.976%; PfKRS1: -0.8474%; LiHisRS: 14.29%
- CN(C)Cc1ccnc(C2CN(CCCc3ccccc3)CCO2)n1 (stereo not shown) : Leishmania in macrophages: -12.73% & -9.918%; PfKRS1: 3.327%; LiHisRS: 24.74%
- [H][C@]12C[C@H](C(=O)NCC3CC3)N(C(C)C)[C@@]1([H])CN(Cc1ccco1)C2 : Leishmania in macrophages: 14.29%
- CNc1cc(CCNC(=O)C2CCCC2)nc(-c2ccccn2)n1 : Leishmania in macrophages: 19.62%; PfKRS1: 5.066%; LiHisRS: 9.859%
- CCN(CC)C(=O)c1cc(C2CCCN2C)ccn1 (stereo not shown) : PfKRS1: 6.637%; LiHisRS: 25%
- OCC1CCN(c2ccc(NCc3ccsc3)nc2)CC1 : Leishmania in macrophages: 3.93%; PfKRS1: 2.998%; LiHisRS: 2.667%
- Cc1ccc(CCC(=O)N2CCCC(c3cc(C(N)=O)[nH]n3)C2)cc1 (stereo not shown) : Leishmania in macrophages: -19.94%; PfKRS1: -0.12%; LiHisRS: 9.649%
- Cc1nn(C)c2nc(N(Cc3ccccn3)CC3CCCO3)sc12 (stereo not shown) : Leishmania in macrophages: -2.233%; PfKRS1: 2.067%; LiHisRS: 12.5%
- Cn1cc(C(=O)Nc2ccc3c(c2)CN(C(=O)C2CC2)CC3)nn1 : Leishmania in macrophages: -4.551%; PfKRS1: 3.28%; LiHisRS: 5.479%
- CCCn1nc2c(cc1=O)CN(CC(=O)Nc1nnc(C)s1)CC2 : Leishmania in macrophages: 0.4274%; PfKRS1: 13.43%; LiHisRS: 18.75%
- Cc1cc(N[C@H](CO)COCc2ccccc2)n2nc(C)cc2n1 : Leishmania in macrophages: 10.59%; PfKRS1: 6.224%; LiHisRS: 5.833%
- [H][C@@]12CNC[C@]1([H])CN(Cc1c(C)noc1C)C2 : Leishmania in macrophages: 13.52%
- NC(=O)CN1CC(c2nc(C3CC3)no2)C1.O=C(O)C(=O)O : Leishmania in macrophages: 36.28%
- COCc1nc2cc(NCc3nc(C)cs3)ccc2o1 : Leishmania in macrophages: 24.67%; PfKRS1: 29.59%; LiHisRS: 106.2%

Repeated from the top, 2 entries:

Cc1ccccc1CN(CCN(C)C)Cc1ccc(C(=O)O)cc1 gave Leishmania in macrophages: -12.99%; PfKRS1: 8.039%; LiHisRS: 8.197%.
Cc1cc(C)c2[nH]c(=O)c(CN3CCCC(O)(CO)C3)cc2c1 (stereo not shown) gave Leishmania in macrophages: 19.87%; PfKRS1: 4.544%; LiHisRS: 25.53%.

Data taken from ChEMBL document CHEMBL3988442, “University of Dundee, Small-Polar-MMV Screening Library” (2021).